# Test results taken from patent publication US20100222269A1, “IMPROVED DERIVATIVES OF AMYLIN” (priority 2007, published 2010).
# The chains behind the UniProt entries cited, without tags or fusion partners. Residues count along the entry.
# UniProt O60896, 24-148: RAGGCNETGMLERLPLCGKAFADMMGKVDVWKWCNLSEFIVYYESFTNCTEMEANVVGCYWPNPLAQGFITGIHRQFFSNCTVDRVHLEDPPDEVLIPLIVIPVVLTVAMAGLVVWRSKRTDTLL
# UniProt P30988, 25-474: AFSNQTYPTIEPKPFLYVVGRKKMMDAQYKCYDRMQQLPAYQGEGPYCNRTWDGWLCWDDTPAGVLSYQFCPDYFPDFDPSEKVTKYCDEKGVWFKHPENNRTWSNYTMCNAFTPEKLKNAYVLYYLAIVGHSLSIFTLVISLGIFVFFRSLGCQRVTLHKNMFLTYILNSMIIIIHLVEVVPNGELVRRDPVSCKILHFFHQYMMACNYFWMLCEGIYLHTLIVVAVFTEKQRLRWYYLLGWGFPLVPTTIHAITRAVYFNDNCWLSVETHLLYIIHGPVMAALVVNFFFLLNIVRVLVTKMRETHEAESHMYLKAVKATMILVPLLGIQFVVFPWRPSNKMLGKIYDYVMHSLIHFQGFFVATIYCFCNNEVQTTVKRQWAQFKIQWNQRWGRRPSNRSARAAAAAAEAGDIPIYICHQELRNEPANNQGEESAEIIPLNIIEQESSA
# At least one peptide structure holds a part that was inferred or is arguable (an end, a ring closure or a residue). Positions of bridges follow the written chain, without caps; N, C: chain ends. Non-standard residues stand in square brackets, D forms with d. Residues, ends and D or L forms follow the SMILES beside them. Groups on a side chain read outwards from the residue. *: point of attachment. C20 diacid = O=C(O)CCCCCCCCCCCCCCCCCCC(=O)*; AEEA = NCCOCCOCC(=O)O
# Molecular target: T1, Amylin 3(a) receptor (human calcitonin receptor (CTa) with RAMP-3) (Homo sapiens, UniProt O60896+P30988)
# T1 construct: expressed in transfected cells; host or cells: BHK570 (baby hamster kidney) cells, stably transfected, with CRE-luciferase reporter
# Assay: Amylin luciferase assay (CRE-luciferase reporter in BHK Amylin 3(a)//CRE-luc cells)
# Format: cell-based
# Conditions: read-out: Potency luciferase assay; BHK570 cells with human calcitonin receptor (CTa), RAMP-3 and CRE-luciferase reporter; 4 hours incubation
# Description: It has previously been published (Poyner D R et al 2002, Pharmacological Reviews 54(2) 233-246) that activation of Amylin receptors (coexpression of Calcitonin receptor and receptor activity modifying peptides RAMPs) by Amylin leads to an increase in the intracellular concentration of cAMP. Consequently, transcription is activated at promotors containing multiple copies of the cAMP response element (CRE). It is thus possible to measure Amylin activity by use of a CRE luciferase reporter gene introduced into BHK cells also expressing an Amylin receptor.
# 2. Construction of an Amylin 3(a)/CRE-luc Cell Line
# A BHK570 cell line stably transfected with the human calcitonin receptor (CTa) and a CRE-responsive luciferase reportergene. The cell line was further transfected with RAMP-3, using standard methods. This turns the Calcitonin receptor into an Amylin 3(a) receptor. Methotrexate, Neomycin, and Hygromycin are selection markers for luciferase, the Calcitonin receptor, and RAMP-3, respectively.
# 3. Amylin Luciferase Assay
# To perform activity assays, BHK Amylin 3(a)//CRE-luc cells were seeded in white 96 well culture plates at a density of about 20.000 cells/well. The cells were in 100 μl growth medium (DMEM with 10% FBS, 1% Pen/Strep, 1 mM Na-pyruvate, 250 nM Methotrexate, 500 μg/ml Neomycin, and 400 μg/ml Hygromycin). After incubation overnight at 37° C. and 5% CO2, the growth medium was replaced by 50 μl/well assay medium (DMEM (without phenol red), Glumamax™, 10% FBS, and 10 mM Hepes, pH 7,4). Further, 50 μl/well of standard or sample in assay buffer were added. After 4 hours incubation at 37° C. and 5% CO2, the assay medium with standard or sample were removed and replaced by 100 μl/well PBS. Further, 100 μl/well LucLite™ was added. The plates were sealed and incubated at room temperature for 30 minutes. Finally, luminescence was measured on a TopCounter (Packard) in SPC (single photon counting) mode.
row,Compound,EC50 [nM]
1,"CC(C)C[C@H](NC(=O)[C@H](CC(N)=O)NC(=O)[C@H](CCC(N)=O)NC(=O)[C@H](CO)NC(=O)[C@H](CO)NC(=O)[C@H](CCCNC(=N)N)NC(=O)[C@@H](NC(=O)[C@H](CC(C)C)NC(=O)[C@H](Cc1ccccc1)NC(=O)[C@H](CC(N)=O)NC(=O)[C@H](C)NC(=O)[C@H](CC(C)C)NC(=O)[C@H](CCCNC(=N)N)NC(=O)[C@H](CCC(N)=O)NC(=O)[C@@H](NC(=O)[C@H](C)NC(=O)[C@@H]1CSSC[C@H](NC(=O)[C@@H](N)CCCCN)C(=O)N[C@@H](CCCCNC(=O)[C@H](CCC(=O)O)NC(=O)[C@H](CCCNC(=N)N)NC(=O)[C@H](CCC(=O)O)NC(=O)[C@H](CCC(=O)O)NC(=O)CCCCCCCCCCCCCCCCCCC(=O)O)C(=O)N[C@@H]([C@@H](C)O)C(=O)N[C@@H](C)C(=O)N[C@@H]([C@@H](C)O)C(=O)N1)[C@@H](C)O)C(C)C)C(=O)NCC(=O)N1CCC[C@H]1C(=O)N[C@H](C(=O)N[C@@H](CC(C)C)C(=O)N1CCC[C@H]1C(=O)N1CCC[C@H]1C(=O)N[C@H](C(=O)N[C@@H](CC(N)=O)C(=O)N[C@H](C(=O)NCC(=O)N[C@@H](CO)C(=O)N[C@@H](CC(N)=O)C(=O)N[C@H](C(=O)N[C@@H](Cc1ccc(O)cc1)C(N)=O)[C@@H](C)O)C(C)C)[C@@H](C)O)C(C)C [Example 32, N-epsilon3 (19-carboxynonadecanoyl-Glu-Glu-Arg-Glu) [Lys3, Arg18, Gln21, Leu23, Val26]pramlintide] (H-KCK([Glu-Arg-Glu-Glu-C20 diacid])TATCATQRLANFLVRSSQNLGPVLPPTNVGSNTY-NH2; disulfide 2-7; N-terminus and C-terminus assumed)",0.3
2,"CC(C)C[C@H](NC(=O)[C@H](CC(N)=O)NC(=O)[C@H](CCC(N)=O)NC(=O)[C@H](CO)NC(=O)[C@H](CO)NC(=O)[C@H](CCCNC(=N)N)NC(=O)[C@@H](NC(=O)[C@H](CC(C)C)NC(=O)[C@H](Cc1ccccc1)NC(=O)[C@H](CC(N)=O)NC(=O)[C@H](C)NC(=O)[C@H](CC(C)C)NC(=O)[C@H](CCCNC(=N)N)NC(=O)[C@H](CCC(N)=O)NC(=O)[C@@H](NC(=O)[C@H](C)NC(=O)[C@@H]1CSSC[C@H](NC(=O)[C@@H](N)CCCCN)C(=O)N[C@@H](CCCCNC(=O)COCCOCCNC(=O)[C@H](CCC(=O)O)NC(=O)[C@H](CCC(=O)O)NC(=O)CCCCCCCCCCCCCCCCCCC(=O)O)C(=O)N[C@@H]([C@@H](C)O)C(=O)N[C@@H](C)C(=O)N[C@@H]([C@@H](C)O)C(=O)N1)[C@@H](C)O)C(C)C)C(=O)NCC(=O)N1CCC[C@H]1C(=O)N[C@H](C(=O)N[C@@H](CC(C)C)C(=O)N1CCC[C@H]1C(=O)N1CCC[C@H]1C(=O)N[C@H](C(=O)N[C@@H](CC(N)=O)C(=O)N[C@H](C(=O)NCC(=O)N[C@@H](CO)C(=O)N[C@@H](CC(N)=O)C(=O)N[C@H](C(=O)N[C@@H](Cc1ccc(O)cc1)C(N)=O)[C@@H](C)O)C(C)C)[C@@H](C)O)C(C)C [Example 33, N-epsilon3-(2-(2-(2-(19-carboxynonadecanoyl-Glu-Glu-amino)ethoxy)ethoxy)acetyl) [Lys3, Arg18, Gln21, Leu23, Val26]pramlintide (1-37)] (H-KCK([AEEA-Glu-Glu-C20 diacid])TATCATQRLANFLVRSSQNLGPVLPPTNVGSNTY-NH2; disulfide 2-7; N-terminus and C-terminus assumed)",0.3
3,"CC(C)C[C@H](NC(=O)[C@H](CC(N)=O)NC(=O)[C@H](CCC(N)=O)NC(=O)[C@H](CO)NC(=O)[C@H](CO)NC(=O)[C@H](CCCNC(=N)N)NC(=O)[C@@H](NC(=O)[C@H](CC(C)C)NC(=O)[C@H](Cc1ccccc1)NC(=O)[C@H](CC(N)=O)NC(=O)[C@H](C)NC(=O)[C@H](CC(C)C)NC(=O)[C@H](CCCNC(=N)N)NC(=O)[C@H](CCC(N)=O)NC(=O)[C@@H](NC(=O)[C@H](C)NC(=O)[C@@H]1CSSC[C@H](NC(=O)[C@H](CCC(=O)O)NC(=O)COCCOCCNC(=O)[C@H](CCC(=O)O)NC(=O)CCCCCCCCCCCCCCCCCCC(=O)O)C(=O)N[C@@H](CCC(N)=O)C(=O)N[C@@H]([C@@H](C)O)C(=O)N[C@@H](C)C(=O)N[C@@H]([C@@H](C)O)C(=O)N1)[C@@H](C)O)C(C)C)C(=O)NCC(=O)N1CCC[C@H]1C(=O)N[C@H](C(=O)N[C@@H](CC(C)C)C(=O)N1CCC[C@H]1C(=O)N1CCC[C@H]1C(=O)N[C@H](C(=O)N[C@@H](CC(N)=O)C(=O)N[C@H](C(=O)NCC(=O)N[C@@H](CO)C(=O)N[C@@H](CC(N)=O)C(=O)N[C@H](C(=O)N[C@@H](Cc1ccc(O)cc1)C(N)=O)[C@@H](C)O)C(C)C)[C@@H](C)O)C(C)C [Example 36, N-alpha-(2-(2-(2-(19-carboxynonadecanoyl-Glu-amino)ethoxy)ethoxy)acetyl)[Glu1,Gln3,Arg18,Gln21,Leu23,Val26]-pramlintide (1-37)] ({C20 diacid}-E[AEEA]ECQTATCATQRLANFLVRSSQNLGPVLPPTNVGSNTY-NH2; disulfide 4-9; C-terminus assumed)",0.4
